These are yes or no findings as the source states them, for the method shown. Binding seen in cells or lysates may run through a third protein. Some binding calls cover weakened binding; strength is not graded here. Tags and fused reporters may be left off the sequences shown.

Chains of the proteins cited; added tags and fusions are not shown. Residues count along the entry.
UniProt O22476, residues 24-1196: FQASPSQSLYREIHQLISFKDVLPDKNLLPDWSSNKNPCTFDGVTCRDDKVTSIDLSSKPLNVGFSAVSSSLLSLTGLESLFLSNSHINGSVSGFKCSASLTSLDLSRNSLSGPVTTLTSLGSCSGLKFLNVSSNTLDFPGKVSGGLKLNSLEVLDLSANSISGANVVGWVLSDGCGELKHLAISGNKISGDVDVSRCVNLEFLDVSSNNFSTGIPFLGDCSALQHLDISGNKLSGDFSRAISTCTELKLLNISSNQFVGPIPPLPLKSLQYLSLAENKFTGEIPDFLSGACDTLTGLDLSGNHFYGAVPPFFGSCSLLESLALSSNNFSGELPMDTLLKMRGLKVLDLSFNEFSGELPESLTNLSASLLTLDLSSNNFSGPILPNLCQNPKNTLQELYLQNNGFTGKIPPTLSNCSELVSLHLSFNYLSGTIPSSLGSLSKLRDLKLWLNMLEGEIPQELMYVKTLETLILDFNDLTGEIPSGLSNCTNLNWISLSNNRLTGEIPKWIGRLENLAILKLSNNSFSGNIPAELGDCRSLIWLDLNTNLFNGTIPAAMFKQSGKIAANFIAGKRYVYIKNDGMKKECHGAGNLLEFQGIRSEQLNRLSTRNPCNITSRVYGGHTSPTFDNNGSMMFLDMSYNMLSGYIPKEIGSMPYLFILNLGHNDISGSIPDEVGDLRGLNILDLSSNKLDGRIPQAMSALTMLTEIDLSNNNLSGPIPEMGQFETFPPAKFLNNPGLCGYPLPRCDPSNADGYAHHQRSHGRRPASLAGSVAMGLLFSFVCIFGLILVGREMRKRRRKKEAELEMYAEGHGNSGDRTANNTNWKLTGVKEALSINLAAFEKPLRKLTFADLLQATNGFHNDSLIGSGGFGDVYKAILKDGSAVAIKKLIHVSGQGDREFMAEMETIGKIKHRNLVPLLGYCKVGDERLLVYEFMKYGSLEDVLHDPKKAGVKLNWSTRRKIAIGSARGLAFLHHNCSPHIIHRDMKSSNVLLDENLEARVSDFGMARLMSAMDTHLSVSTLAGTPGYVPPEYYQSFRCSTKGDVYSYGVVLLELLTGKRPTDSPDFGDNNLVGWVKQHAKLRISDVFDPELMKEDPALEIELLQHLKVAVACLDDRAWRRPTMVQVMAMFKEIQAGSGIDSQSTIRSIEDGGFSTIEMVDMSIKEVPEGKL

Assay [1] addresses T1, FLAG–BIL4 (full-length BIL4 attached to the C-terminus of FLAG, 35S promoter) (Arabidopsis thaliana) (UniProt Q9M1V9).
T1 sequence: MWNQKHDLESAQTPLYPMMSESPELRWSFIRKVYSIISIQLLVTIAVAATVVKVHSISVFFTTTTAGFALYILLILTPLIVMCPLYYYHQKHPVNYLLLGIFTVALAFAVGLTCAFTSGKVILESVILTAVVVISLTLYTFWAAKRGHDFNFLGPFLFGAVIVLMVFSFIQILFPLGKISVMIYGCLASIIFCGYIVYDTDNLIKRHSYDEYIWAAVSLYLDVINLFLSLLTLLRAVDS
As to the kind of experiment: co-IP; extract of 7-day-old transgenic Arabidopsis seedlings in 50 mM Tris-HCl pH 7.5, 100 mM NaCl, 2 mM EDTA, 1% CHAPS; FLAG–BIL4 immunoprecipitated with anti-Flag M2 affinity gel at 4 °C for 30 min; blots with anti-GFP and anti-Flag.

In assay [2] the target is T2, BIL4–nEYFP (full-length BIL4 fused to the N-terminal half of enhanced yellow fluorescence protein) (Arabidopsis thaliana) (UniProt Q9M1V9).
T2 sequence: T1 sequence
Kind of assay: split reporter; BiFC in cultured Arabidopsis cells; nEYFP and cEYFP fusions introduced by Agrobacterium; microscopy 4 days after inoculation.

Consider “BRI1–GFP (BRI1pro::BRI1–GFP) (from UniProt O22476 24-1196) (receptor)”, for which the binding entry in assay [1] is given as “binds”. As for “BRI1–cEYFP (full-length BRI1 fused to the C-terminal half of EYFP) (from UniProt O22476 24-1196) (receptor)”, the binding result in assay [2] is “binds”.

B1: CERK1–cEYFP (receptor, UniProt A8R7E6 24-617)
chain: KCRTSCPLALASYYLENGTTLSVINQNLNSSIAPYDQINFDPILRYNSNIKDKDRIQMGSRVLVPFPCECQPGDFLGHNFSYSVRQEDTYERVAISNYANLTTMESLQARNPFPATNIPLSATLNVLVNCSCGDESVSKDFGLFVTYPLRPEDSLSSIARSSGVSADILQRYNPGVNFNSGNGIVYVPGRDPNGAFPPFKSSKQDGVGAGVIAGIVIGVIVALLLILFIVYYAYRKNKSKGDSFSSSIPLSTKADHASSTSLQSGGLGGAGVSPGIAAISVDKSVEFSLEELAKATDNFNLSFKIGQGGFGAVYYAELRGEKAAIKKMDMEASKQFLAELKVLTRVHHVNLVRLIGYCVEGSLFLVYEYVENGNLGQHLHGSGREPLPWTKRVQIALDSARGLEYIHEHTVPVYVHRDIKSANILIDQKFRAKVADFGLTKLTEVGGSATRGAMGTFGYMAPETVYGEVSAKVDVYAFGVVLYELISAKGAVVKMTEAVGEFRGLVGVFEESFKETDKEEALRKIIDPRLGDSYPFDSVYKMAELGKACTQENAQLRPSMRYIVVALSTLFSSTGNWDVGNFQNEDLVSLMSGR
On to B1, for which the binding entry in assay [2] is “no binding”.

The values above are taken from PMC5515986.
